Data published in paper doi:10.1101/2022.05.13.491604.
No constants are given. Whether binding was seen depends on the method and setting. Binding seen in cells or lysates may run through a third protein. For some assays here: Tags and fused reporters may be left off the sequences shown.

Protein sequences, listed by entry. Tags and fused reporters are not part of them. Lines headed by an entry give the natural chain unless they say otherwise; changes in a name come on top.
UniProt P13681: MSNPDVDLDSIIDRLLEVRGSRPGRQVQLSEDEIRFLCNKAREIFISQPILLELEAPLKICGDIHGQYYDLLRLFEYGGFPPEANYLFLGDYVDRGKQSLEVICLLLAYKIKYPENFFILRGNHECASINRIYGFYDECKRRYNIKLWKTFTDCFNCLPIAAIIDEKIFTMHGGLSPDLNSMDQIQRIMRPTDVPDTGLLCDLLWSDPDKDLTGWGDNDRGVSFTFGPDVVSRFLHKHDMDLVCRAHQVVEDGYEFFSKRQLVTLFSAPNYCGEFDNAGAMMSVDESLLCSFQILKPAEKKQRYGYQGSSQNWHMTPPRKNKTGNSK
UniProt Q96UP3: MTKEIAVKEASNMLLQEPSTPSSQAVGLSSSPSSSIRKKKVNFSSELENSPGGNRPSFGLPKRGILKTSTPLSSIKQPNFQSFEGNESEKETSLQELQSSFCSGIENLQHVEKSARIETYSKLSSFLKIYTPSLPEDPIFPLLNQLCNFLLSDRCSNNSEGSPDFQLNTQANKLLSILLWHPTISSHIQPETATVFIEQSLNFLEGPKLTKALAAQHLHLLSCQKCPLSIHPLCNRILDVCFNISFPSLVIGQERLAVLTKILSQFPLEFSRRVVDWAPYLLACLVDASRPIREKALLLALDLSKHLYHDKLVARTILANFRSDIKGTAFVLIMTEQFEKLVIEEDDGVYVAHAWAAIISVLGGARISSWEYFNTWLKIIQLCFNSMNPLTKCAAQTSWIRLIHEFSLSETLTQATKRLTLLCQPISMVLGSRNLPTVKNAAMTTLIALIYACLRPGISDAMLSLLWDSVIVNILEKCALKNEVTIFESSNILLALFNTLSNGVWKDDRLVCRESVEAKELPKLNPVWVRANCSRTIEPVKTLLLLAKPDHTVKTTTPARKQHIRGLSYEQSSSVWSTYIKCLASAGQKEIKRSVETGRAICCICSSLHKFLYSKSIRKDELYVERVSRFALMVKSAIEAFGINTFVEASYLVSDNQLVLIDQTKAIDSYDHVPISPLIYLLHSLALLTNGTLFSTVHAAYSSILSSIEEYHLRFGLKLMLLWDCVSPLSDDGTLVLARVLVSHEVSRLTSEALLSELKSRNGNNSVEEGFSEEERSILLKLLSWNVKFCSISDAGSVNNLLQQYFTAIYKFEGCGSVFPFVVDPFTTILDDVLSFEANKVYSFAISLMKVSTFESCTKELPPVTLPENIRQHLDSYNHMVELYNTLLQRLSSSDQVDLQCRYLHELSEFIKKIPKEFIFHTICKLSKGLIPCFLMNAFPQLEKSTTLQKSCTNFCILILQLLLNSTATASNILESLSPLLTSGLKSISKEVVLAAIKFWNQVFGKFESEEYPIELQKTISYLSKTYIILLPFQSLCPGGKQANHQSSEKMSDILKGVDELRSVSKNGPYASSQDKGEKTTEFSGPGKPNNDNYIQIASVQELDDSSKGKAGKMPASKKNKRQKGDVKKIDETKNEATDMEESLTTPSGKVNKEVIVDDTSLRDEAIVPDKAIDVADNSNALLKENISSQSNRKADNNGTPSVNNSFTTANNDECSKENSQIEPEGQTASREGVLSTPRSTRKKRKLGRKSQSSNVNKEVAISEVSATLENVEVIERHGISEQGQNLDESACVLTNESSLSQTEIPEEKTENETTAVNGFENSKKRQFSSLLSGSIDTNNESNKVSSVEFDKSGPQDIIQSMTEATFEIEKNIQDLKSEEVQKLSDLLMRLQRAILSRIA

Legend:
[1] = target: Myc-tagged Dis2 (PP1) (fission yeast (Schizosaccharomyces pombe)) (UniProt P13681); test: co-IP
[2] = target: T1, Myc-tagged Sds21 (PP1) (fission yeast (Schizosaccharomyces pombe)) (UniProt P23880); test: co-IP
T1 sequence: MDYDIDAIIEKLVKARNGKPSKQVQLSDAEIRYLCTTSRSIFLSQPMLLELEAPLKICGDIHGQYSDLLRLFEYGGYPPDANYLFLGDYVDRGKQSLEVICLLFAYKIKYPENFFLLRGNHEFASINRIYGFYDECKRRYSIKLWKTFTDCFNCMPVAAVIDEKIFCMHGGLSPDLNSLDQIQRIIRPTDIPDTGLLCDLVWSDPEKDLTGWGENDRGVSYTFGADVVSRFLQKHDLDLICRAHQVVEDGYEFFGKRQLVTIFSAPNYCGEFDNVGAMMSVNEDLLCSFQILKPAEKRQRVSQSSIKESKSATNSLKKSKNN

binding [1]: no binding | binding [2]: no binding
Substance: Flag-tagged Rif1 PP1-binding site mutant (PP1bsmut) (from UniProt Q96UP3)
